Results reported in publication PMC5430330.

Columns and labels:
[1] = target: cCFP-AtBS14b (Arabidopsis thaliana); experiment: split reporter; split GFP assay: X-nYFP and cCFP-AtBS14b co-expressed transiently in N. benthamiana leaves by Agrobacterium infiltration; YFP fluorescence by confocal microscopy after 36 to 48 hours
[2] = target: AtBS14b in Cub vector pMETYC_GW (Arabidopsis thaliana); experiment: two-hybrid; mating-based split-ubiquitin assay in yeast; MSBP1, BAK1, BRI1 in Nub vector pXN25_GW, AtBS14b in Cub vector pMETYC_GW; yeast growth assay; NubWT and NubG as positive and negative control

| binding [1] | binding [2] | Binder |
| --- | --- | --- |
| no binding |  | BAK1-nYFP (receptor, UniProt Q94F62 26-615) NAEGDALSALKNSLADPNKVLQSWDATLVTPCTWFHVTCNSDNSVTRVDLGNANLSGQLVMQLGQLPNLQYLELYSNNITGTIPEQLGNLTELVSLDLYLNNLSGPIPSTLGRLKKLRFLRLNNNSLSGEIPRSLTAVLTLQVLDLSNNPLTGDIPVNGSFSLFTPISFANTKLTPLPASPPPPISPTPPSPAGSNRITGAIAGGVAAGAALLFAVPAIALAWWRRKKPQDHFFDVPAEEDPEVHLGQLKRFSLRELQVASDNFSNKNILGRGGFGKVYKGRLADGTLVAVKRLKEERTQGGELQFQTEVEMISMAVHRNLLRLRGFCMTPTERLLVYPYMANGSVASCLRERPESQPPLDWPKRQRIALGSARGLAYLHDHCDPKIIHRDVKAANILLDEEFEAVVGDFGLAKLMDYKDTHVTTAVRGTIGHIAPEYLSTGKSSEKTDVFGYGVMLLELITGQRAFDLARLANDDDVMLLDWVKGLLKEKKLEALVDVDLQGNYKDEEVEQLIQVALLCTQSSPMERPKMSEVVRMLEGDGLAERWEEWQKEEMFRQDFNYPTHHPAVSGWIIGDSTSQIENEYPSGPR |
|  | no binding | BAK1 in Nub vector pXN25_GW (receptor, UniProt Q94F62 26-615) NAEGDALSALKNSLADPNKVLQSWDATLVTPCTWFHVTCNSDNSVTRVDLGNANLSGQLVMQLGQLPNLQYLELYSNNITGTIPEQLGNLTELVSLDLYLNNLSGPIPSTLGRLKKLRFLRLNNNSLSGEIPRSLTAVLTLQVLDLSNNPLTGDIPVNGSFSLFTPISFANTKLTPLPASPPPPISPTPPSPAGSNRITGAIAGGVAAGAALLFAVPAIALAWWRRKKPQDHFFDVPAEEDPEVHLGQLKRFSLRELQVASDNFSNKNILGRGGFGKVYKGRLADGTLVAVKRLKEERTQGGELQFQTEVEMISMAVHRNLLRLRGFCMTPTERLLVYPYMANGSVASCLRERPESQPPLDWPKRQRIALGSARGLAYLHDHCDPKIIHRDVKAANILLDEEFEAVVGDFGLAKLMDYKDTHVTTAVRGTIGHIAPEYLSTGKSSEKTDVFGYGVMLLELITGQRAFDLARLANDDDVMLLDWVKGLLKEKKLEALVDVDLQGNYKDEEVEQLIQVALLCTQSSPMERPKMSEVVRMLEGDGLAERWEEWQKEEMFRQDFNYPTHHPAVSGWIIGDSTSQIENEYPSGPR |

No constants are given. Whether binding was seen depends on the method and setting. For some assays here: Binding seen in cells or lysates may run through a third protein. For some assays here: Sequences can lack the tags named with a protein.
